Source: PubChem BioAssay AID540276 (National Center for Advancing Translational Sciences (NCATS), 2011)
The campaign covered roughly 300,000 compounds. About 5,400 (1.8%) were called active. The shares of active, inactive and inconclusive entries below differ from those in the screen. Calls follow the shape of the full dose curve; tested in HEK293 cells. Potencies of inconclusive entries are doubtful fits and often do not repeat.

assay: qHTS for inhibitors of binding or entry into cells for Marburg Virus; conditions: Marburg virus pseudotyped entry inhibition, cell reporter; activity change, negative = inhibition: at 37.8 µM (top of the series) unless noted
% is scaled to controls: 0 for no effect and ±100 for the full control effect; potency is read from the fitted curve at half-maximal effect.

SMILES | Potency | activity change, negative = inhibition
COc1ccc(CNC(=O)c2cncc(Br)c2)cc1 | inconclusive: 5.01 µM [activator, full curve, poor fit] | 
Cc1cc(SC(C)C(=O)Nc2ncc(Cl)cc2Cl)nc2ccccc12 (configuration not stated) | inconclusive: 2.51 µM [inhibitor, full curve, poor fit] | 
CCN(CC)S(=O)(=O)c1ccc2c(c1)nc(SCC(N)=O)n2-c1ccc(OC)cc1 |  | inactive: -10.4%
CCOc1ccccc1NC(=O)c1oc2ccccc2c1NC(=O)C1CCCO1 (configuration not stated) | inconclusive: 14.1 µM [inhibitor, single point] | 
COc1ccc2oc(C(=O)N3CCc4ccccc43)c(C)c2c1 | inconclusive: 7.08 µM [inhibitor, partial curve, poor fit] | 
C=CCCOc1ccccc1C(N)=O | inconclusive: 3.55 µM [inhibitor, partial curve, poor fit] | 
COc1ccc(-n2c(=O)c3ccccc3n(Cc3ccccc3C)c2=O)c(OC)c1 |  | inactive: -1.19% [at 46.1 µM]
O=C(COC(=O)c1n[nH]c2ccccc12)Nc1ccc(S(=O)(=O)N2CCCC2)cc1 | inconclusive: 8.91 µM [inhibitor, partial curve, poor fit] | 
Cc1ccc2nc(NC(=O)C3CCN(c4ncnc5sc(C)c(C)c45)CC3)sc2c1 |  | inactive: 8.28%
Cc1ccc(-n2nc(C(=O)Nc3ccc(C)c(F)c3)c3c4ccccc4n(C)c3c2=O)cc1 |  | inactive: 0.422% [at 46.1 µM]
CC(=O)C1=C(C)NC(=O)NC1c1cccs1 (configuration not stated) | inconclusive: 18.3 µM [activator, partial curve, poor fit] | 
Cc1cc(C(=O)CSc2nnc(-c3ccco3)o2)c(C)n1CC1COc2ccccc2O1 (configuration not stated) | inconclusive: 35.5 µM [inhibitor, single point] | 
CS(=O)(=O)N(CC(=O)Nc1ccc2c(c1)OCCO2)c1ccc2c(c1)OCO2 | inconclusive: 2.82 µM [activator, single point] | 
COc1cc(NC(=S)NC(=O)CC(C)C)ccc1NC(=O)c1cc2ccccc2o1 |  | inactive: -4.75%
O=C(Nc1nc2ccc([N+](=O)[O-])cc2s1)c1ccncc1 | inconclusive: 1.26 µM [inhibitor, partial curve, poor fit] | 
O=C(NNC(=S)NCCc1ccccc1)c1ccc(Br)s1 |  | inactive: -23.8% [at 46.1 µM]
O=C(CN1CCc2ccccc2C1)Nc1cccc(S(=O)(=O)N2CCCC2)c1 | inconclusive: 5.62 µM [inhibitor, single point] | 
Clc1ccc(CN2CCN(c3ncccn3)CC2)cc1Cl |  | inactive: -1.29% [at 46.1 µM]
CCOC(=O)C1CCN(C(=O)CN2C(=O)NC(C)(c3ccc4cc(OC)ccc4c3)C2=O)CC1 (configuration not stated) | inconclusive: 5.62 µM [inhibitor, single point] | 
CC(C)(C)OC(=O)N1CCN(c2ccc(NC(=O)c3ccco3)cc2)CC1 |  | inactive: -16.7% [at 46.1 µM]
COc1ccc(C(=O)Nc2ccc(-c3nc4ccccc4s3)cc2C)cc1Cl | inconclusive: 1.26 µM [activator, full curve, poor fit] | 
CC1CCN(c2c([N+](=O)[O-])nn(-c3ccc4c(c3)OCCO4)[n+]2[O-])CC1 |  | inactive: 27.5%
CCCCCCCCCCn1ccc(=N)cc1 | inconclusive: 2 µM [inhibitor, full curve, poor fit] | 

SMILES | Potency | activity change, negative = inhibition
O=C(c1cccc(S(=O)(=O)N2CCCC2)c1)N1CCN(c2ccccc2)CC1 | inconclusive: 25.9 µM [inhibitor, partial curve, poor fit] | 
CC1CCC(NC(=O)CSc2nncs2)CC1 (configuration not stated) | inconclusive: 35.5 µM [activator, single point] | 
CCOC(=O)C(=O)Nc1cc(C)on1 |  | inactive: -2.21% [at 46.1 µM]
Cc1cccc(OCCOC(=O)c2c(-c3ccccc3)noc2C)c1 | inconclusive: 20 µM [inhibitor, single point] | 
CCOC(=O)Nc1ccc(S(=O)(=O)NCc2ccccc2)cc1 |  | inactive: -17%
CC(C)(C)c1cc(C(C)(C)C)cc(S(=O)(=O)CCc2ccccn2)c1 | inconclusive: 25.9 µM [inhibitor, single point] | 
CCc1nc(-c2ccccc2O)n(-c2ccccc2)n1 |  | inactive: -2.68%
Cc1cc(=O)oc2cc(OCC(=O)c3ccc4c(c3)NC(=O)CO4)ccc12 | inconclusive: 3.98 µM [inhibitor, partial curve, poor fit] | 
Cc1ccc(Oc2ccc(Cl)cc2NC(=O)c2cnccn2)cc1 |  | inactive: -1.93%
O=C(Nc1nc(-c2ccccc2)cs1)c1cccc(S(=O)(=O)N2CCN(Cc3ccccc3)CC2)c1 | inconclusive: 22.4 µM [inhibitor, partial curve, poor fit] | 
CN1CCN(c2ccc(S(C)(=O)=O)cc2[N+](=O)[O-])CC1 | inconclusive: 25.1 µM [activator, single point] | 
O=C(CN1C(=O)COc2ccc(S(=O)(=O)N3CCCC3)cc21)NCc1ccccn1 |  | inactive: 24.4% [at 46.1 µM]
O=C(O)C1CCCCC1C(=O)NCc1ccncc1 (configuration not stated) | inconclusive: 15.8 µM [activator, single point] | 
CC1CCc2c(C(=O)OCC(=O)Nc3cccc(S(=O)(=O)N4CCCCCC4)c3)csc2C1 (configuration not stated) | inconclusive: 17.8 µM [inhibitor, single point] | 
CCn1nc(C)cc1C(=O)NC1CCCc2c1cnn2-c1ccc(C)c(C)c1 (configuration not stated) | inconclusive: 8.91 µM [inhibitor, partial curve, poor fit] | 
COc1ccc(NC(=O)N2CCCC2C(=O)Nc2cccc(C)c2C)cc1 (configuration not stated) |  | inactive: -2.54% [at 46.1 µM]
Cc1cc2c(nc1C)CCCCN2C[C@H](C)ON=C[C@@H](C)[C@H](OCc1ccccc1)C(C)C | inconclusive: 0.188 µM [inhibitor, full curve, poor fit] | 
COc1ccc(C(=O)N2CCC(c3nc(-c4ccc(S(=O)(=O)N5CCCC5)cc4)no3)CC2)cc1 | inconclusive: 11.2 µM [inhibitor, partial curve, poor fit] | 
Cc1ccc(C2(O)CN(c3ccccc3C)C3=[N+]2CCS3)cc1 (configuration not stated) |  | inactive: -13.9%
O=Cc1ccc(N2Cc3ccccc3C2)cc1 | active: 1.26 µM | 
COc1ccc2c(C)nc(N/C(N)=N/S(=O)(=O)c3ccc(C)cc3)nc2c1 | inconclusive: 11.2 µM [inhibitor, partial curve, poor fit] | 
Cc1nc2sc(C(N)=O)c(N)c2c(-c2ccc(Br)cc2)c1C(=O)Nc1ccc(Cl)cc1 | inconclusive: 35.5 µM [inhibitor, single point] | 
CN(C)CCCN=Cc1c(O)n(Cc2ccccc2)c(=O)c2ccccc12 | inconclusive: 10 µM [inhibitor, partial curve, poor fit] | 

An excerpt of these results, in CSV form:
SMILES,Potency,"activity change, negative = inhibition"
CCn1nc(C)cc1C(=O)NC1CCCc2c1cnn2-c1ccc(C)c(C)c1 (configuration not stated),"inconclusive: 8.91 µM [inhibitor, partial curve, poor fit]",
COc1ccc(NC(=O)N2CCCC2C(=O)Nc2cccc(C)c2C)cc1 (configuration not stated),,inactive: -2.54% [at 46.1 µM]
Cc1cc2c(nc1C)CCCCN2C[C@H](C)ON=C[C@@H](C)[C@H](OCc1ccccc1)C(C)C,"inconclusive: 0.188 µM [inhibitor, full curve, poor fit]",

Later entries.

SMILES | Potency | activity change, negative = inhibition
COc1ccc(Nc2nnc(SCC3CCCO3)s2)cc1 (configuration not stated) |  | inactive: -6.73%
COc1ccc(OC)c(/C=N/NC(=O)CNC(=O)c2ccc(S(=O)(=O)N3CCOCC3)cc2)c1 |  | inactive: -4.11%
Cc1cc(C)n2c(SCC(=O)Nc3cc(S(=O)(=O)N(C)C)ccc3C)nnc2n1 | inconclusive: 35.5 µM [inhibitor, single point] | 
CCOc1ccc(Br)cc1S(=O)(=O)Nc1ccc(NC(=O)c2ccccc2C)cc1 | inconclusive: 20.6 µM [inhibitor, single point] | 
O=C(CSc1nnc2ccc3ccccc3n12)c1ccc(F)cc1 | inconclusive: 17.8 µM [activator, partial curve, poor fit] | 
Cc1cc(C)c(C(=O)COC(=O)CN2C(=O)NC3(CCCC3)C2=O)cc1C | inconclusive: 0.708 µM [inhibitor, single point] | 
COc1ccc(C2CC(c3ccccc3)=NN2c2ccc(S(N)(=O)=O)cc2)cc1OC (configuration not stated) | inconclusive: 11.2 µM [inhibitor, partial curve, poor fit] | 
COc1ccccc1-c1cc(C(F)(F)F)nc(S(C)(=O)=O)n1 | inconclusive: 29.1 µM [inhibitor, single point] | 
OCCNc1nc(SCc2ccccc2)nc2sc3c(c12)CCC3 | inconclusive: 0.112 µM [inhibitor, full curve] | 
O=c1c2ccccc2nc(-c2ccc(F)cc2)n1NCc1ccccc1O |  | inactive: 8.55%
O=C(c1ccccc1)c1ccc2nc(-c3ccc(NC(=O)c4ccccc4Br)cc3)[nH]c2c1 |  | inactive: 13.8%
Cc1cc(=O)[nH]c(N/N=C/c2ccc(-c3ccc([N+](=O)[O-])cc3)o2)n1 |  | inactive: -18% [at 46.1 µM]
CCOc1ccc2nc(NC(=O)C3CCN(C(=O)c4ccco4)CC3)sc2c1 |  | inactive: -10.2% [at 46.1 µM]
O=C(c1cc(-c2ccc(Cl)c(Cl)c2)on1)N1CCCCC1 | inconclusive: 3.55 µM [activator, partial curve, poor fit] | 
O=C(CS(=O)(=O)c1cn(CC(=O)N2CCOCC2)c2ccccc12)NCc1ccccc1 | inconclusive: 31.6 µM [activator, single point] | 
CCN1CCN(CC(=O)n2c3c(c4ccccc42)CC(C)CC3)CC1 (configuration not stated) | inconclusive: 35.5 µM [inhibitor, single point] | 
O=C(Nc1ccc(Cl)cc1)Nc1ccc(N2CCOCC2)cc1 | inconclusive: 11.2 µM [inhibitor, partial curve] | 
COc1cc(C2C(C(=O)c3ccc(C)o3)=C(O)C(=O)N2Cc2cccnc2)ccc1O (configuration not stated) | inconclusive: 5.62 µM [activator, single point] | 
COc1ccc(C(=O)NCc2cccs2)cc1S(=O)(=O)N1CCOCC1 | inconclusive: 0.0891 µM [inhibitor, full curve, poor fit] | 
CCC(CC)c1nnc(NC(=O)c2cc([N+](=O)[O-])ccc2N2CCCCC2)s1 | inconclusive: 10 µM [inhibitor, partial curve, poor fit] | 
CCC(C)c1ccc(NC(=S)NN2CCOCC2)cc1 (configuration not stated) | inconclusive: 35.5 µM [activator, single point] | 
